Our source for the binding values is paper PMC3829167, “Directed Evolution of an Angiopoietin-2 Ligand Trap by Somatic Hypermutation and Cell Surface Display*” (The Journal of Biological Chemistry, 2013).

Test [1] has as its target wild-type Tie2 ectodomain (residues 1-442) surface expression construct on DT40 cells (human) (UniProt Q02763). As to the kind of experiment: flow cytometry on cells; DT40 cells displaying the Tie2 ectodomain construct incubated with 1 nM ligand for 30 min at room temperature in PBS with 10% fetal bovine serum; bound ligand stained at 4 °C with anti-His6, anti-Ang1 plus fluorescent secondary antibody, or fluorescent streptavidin; only the binder purified.

The target of a further test is T1, human angiopoietin 2 (human, UniProt O15123 19-496).
T1 construct: human angiopoietin 2 (Ang2), recombinant protein from R&D Systems; also called Ang2; source: bought: R&D Systems
T1 sequence (looked up): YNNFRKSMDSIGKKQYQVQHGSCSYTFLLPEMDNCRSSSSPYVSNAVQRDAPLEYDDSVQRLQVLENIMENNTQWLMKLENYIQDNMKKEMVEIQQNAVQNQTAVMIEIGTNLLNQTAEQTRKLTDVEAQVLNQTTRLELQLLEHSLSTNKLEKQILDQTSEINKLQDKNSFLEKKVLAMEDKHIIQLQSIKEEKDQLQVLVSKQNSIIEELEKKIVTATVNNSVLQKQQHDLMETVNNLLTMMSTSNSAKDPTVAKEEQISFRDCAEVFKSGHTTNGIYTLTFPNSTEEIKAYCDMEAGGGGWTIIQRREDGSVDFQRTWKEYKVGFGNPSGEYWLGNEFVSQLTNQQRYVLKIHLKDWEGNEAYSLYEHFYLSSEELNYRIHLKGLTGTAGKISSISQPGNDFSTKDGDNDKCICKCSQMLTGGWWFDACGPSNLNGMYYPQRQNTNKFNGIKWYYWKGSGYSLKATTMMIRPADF
Nature of the test: ELISA; 5 μg/ml Ang1 or Ang2 immobilised in 96-well plates; blocked with TBS, 1 mg/ml BSA, 0.1% Triton-X 100; ectodomain-Fc fusion protein bound for 1 h at different concentrations, detected with anti-Tie2 ectodomain antibodies; saturation binding curves fitted by nonlinear regression; both purified. Background: In an ELISA, binding on a coated surface is turned into a signal by an enzyme label.

These are yes or no findings as the source states them, for the method shown. Some binding calls cover weakened binding; strength is not graded here.

As for “human angiopoietin 2 (from UniProt O15123 19-496) (ligand)”, in test [1], the binding result is on record as “binds”.

B1: soluble Tie2 ectodomain (1-442)-Fc fusion protein with the double Arg-167/His-168 deletion (Fc fusion, human, UniProt Q02763 23-442, looked up)
chain: AMDLILINSLPLVSDAETSLTCIASGWRPHEPITIGRDFEALMNQHQDPLEVTQDVTREWAKKVVWKREKASKINGAYFCEGRVRGEAIRIRTMKMRQQASFLPATLTMTVDKGDNVNISFKKVLIKEEDAVIYKNGSFIHSVPEVPDILEVHLPHAQPQDAGVYSARYIGGNLFTSAFTRLIVRRCEAQKWGPECNHLCTACMNNGVCHEDTGECICPPGFMGRTCEKACELHTFGRTCKERCSGQEGCKSYVFCLPDPYGCSCATGWKGLQCNEACHPGFYGPDCKLRCSCNNGEMCDRFQGCLCSPGWQGLQCEREGIQRMTPKIVDLPDHIEVNSGKFNPICKASGWPLPTNEEMTLVKPDGTVLHPKDFNHTDHFSVAIFTIHRILPPDSGVWVCSVNTVAGMVEKPFNISVK
notes: signal peptide in the construct; human Tie2 ectodomain, residues 1-442, Arg-167 and His-168 deleted; also called ΔRH; ΔArg-167/His-168; source: HEK293 cells, transfected, secreted, purified (nickel-nitrilotriacetic acid chromatography); not shown: Fc (human), C-terminal, kept
On to B1, for which, in the test with human angiopoietin 2, the binding result is reported as “no binding”.
